Reference: PubChem BioAssay AID687031 (Broad Institute, 2013)
About 50 (4%) of roughly 1,400 compounds were called active.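 Rule for the calls: active = fitted curve reaches 30% CPE protection at or below the top valid dose, with every test run called active; inconclusive = test runs disagree, some active and some not; inactive = every test run inactive, including effects in the wrong direction.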 Some of the results follow. Results with a measured potency or affinity are listed apart.

Assay: Dengue virus 2 cytopathic effect protection, dose response, BHK-21 cells, ATP luminescence, cherry-pick (AID 687031);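 note: 0% = infected DMSO wells and 100% = uninfected cell wells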
Settings: BHK-21 DENV2 CPE protection, 5 d; at 19.5 µM (top of the series) unless noted

CPE protection (higher = active), inactive:
CN(CC(=O)Nc1ccccc1C(=O)NC1CC1)Cc1ccccc1F 28.4%, C[C@H](CO)N1C[C@H](C)[C@@H](CN(C)Cc2ccc3c(c2)OCO3)OCCCC[C@H](C)Oc2ccc(N(C)C)cc2C1=O -1.48%, CCNC(=O)C[C@H]1CC[C@H]2[C@@H](COC[C@@H](O)CN2Cc2ccc(Cl)c(Cl)c2)O1 14.9%, CC(=O)Nc1cccc(/C(C)=N/NC(=O)c2cccc(S(=O)(=O)N3CCCC3)c2)c1 3.82%, OC(CN1CCN(c2cccc(Cl)c2)CC1)c1ccc(F)cc1 (stereo not drawn) 8.73%, C[C@H](CO)N1C[C@H](C)[C@H](CN(C)C)Oc2ncc(C#CC3CC3)cc2C1=O 8.52%, O=C(C1CCOCC1)N1C[C@@H]2[C@H](c3ccccc31)[C@H](CO)N2C(=O)c1ccccc1 -12.7%, N#Cc1ccc(-c2ccc([C@@H]3[C@@H]4CN(Cc5cocn5)C[C@H]3N4)cc2)cc1 5.15% [at 21 µM], O=C(CN1CCN(C(=O)C2CCC2)CC1)Nc1ccc(F)cc1 -35.6%, Cc1ccc(Cn2cc(CN3CC(N(C)C)CS3(=O)=O)nn2)cc1 (stereo not drawn) 14%, CC(C)(C)N(Cc1ccccc1)C(=O)COC(=O)C1CCN(c2ccc(C(F)(F)F)cn2)CC1 -7.35%, COc1ccc2c3c(n(C)c2c1)[C@H](CO)N(C(=O)Nc1ccccc1F)CC31CN(C)C1 10.3% [at 21 µM], CCCNC(=O)C[C@H]1CC[C@@H]2[C@H](COC[C@H](O)CN2C(=O)CC)O1 36.8%, CCc1cc(=O)oc2cc(OCC(=O)NC3CC(C)(C)NC(C)(C)C3)ccc12 3.18%, O=C(NCCS(=O)(=O)N1CCN(c2ccccc2)CC1)C1CC1 14.1%, O=C(NCCCC1CCCC1)C1CCC(=O)N(Cc2cccc(C(F)(F)F)c2)C1 (stereo not drawn) -1.57%, CC(C)c1ccc(NC2CCCN(C(=O)c3cccc(N4CCNC4=O)c3)C2)cc1 (stereo not drawn) -1.41%, OC(COc1ccc(Cl)cc1Cl)Cn1ccnc1 (stereo not drawn) 2.84%, CCOC(=O)N1CCC(NC(=O)c2cccc3c2C(=O)N(CCOC)C3)CC1 8.32%, O=C(NCc1ccccn1)C(=O)NCC1OCCN1S(=O)(=O)c1ccc(Br)cc1 (stereo not drawn) -4.64%, CCCCNC(=O)c1onc(CS(=O)(=O)c2ccccn2)c1C(=O)NCCCC -9.41%, CCOc1ccccc1-c1nnc(CS(=O)(=O)c2ccccc2)o1 -7.93%, COc1ccc(C(CNS(=O)(=O)c2ccc(NC(C)=O)c(OC)c2)N2CCCC2)cc1 (stereo not drawn) -7.25%
